The list shows a part of the results. Values are worked out from sequencing counts and are noisy.
T1: Homer1 EVH1 domain
T1 chain: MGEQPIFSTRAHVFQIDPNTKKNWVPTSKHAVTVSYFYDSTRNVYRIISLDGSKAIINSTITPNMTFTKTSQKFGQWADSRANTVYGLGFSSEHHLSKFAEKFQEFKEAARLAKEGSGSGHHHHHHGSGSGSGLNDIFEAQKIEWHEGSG


Biological target: T1, Homer1 EVH1 domain
Assay: enrichment score (AUC of log2 frequency ratio across FACS sorting rounds) (log2 AUC); higher = stronger enrichment for Homer1 EVH1 binding
Binder MAVVPLLLLGGLWSAVGASSLGVVTCGSVVKLLNTR has an enrichment score of 1.03. With DHVLYTVYSTVGAFYFPTLLLIALYGRIYVEARSQS the enrichment score was 1.63. With TIQNVIKLVDELMEAPGDVETLAPPVRHLIATQLLS the enrichment score was 1.86. For MDPARKAGAQAMIWTAGWLLLLLLRGGAQALECYSY, the enrichment score was 1.69. For LVFLIPFLHFIIFLFTLRCLEWKFGKKSMRKDPFFR, the enrichment score was -1.35. LTSLWSLSVAIFSVGGMIGSFSVGLFVNRFGRRNSM showed an enrichment score of -0.996. Binder MGSPRSALSCLLLHLLVLCLQAQEGPGRGPALGREL has an enrichment score of -1.5. TGIFIGHYAENVSMWIFALTAGLFMYVALVDMVPEM showed an enrichment score of 3.37. SWLLPWYRYKTYYCLSVIIFFFVYIWHWALPLILNN gave an enrichment score of 0.371. AGSGAATGISVSAYELNGLFSVLMLAWIFLPIYIAG gave an enrichment score of 2.09. In the case of QNPWWALTGWLGTVVSTLMALLLSQDRSLIASGLYG, the enrichment score is reported as 2.36. KAIESQFGSSVASYFLFLRWMYGVNMVLFILTFSLI showed an enrichment score of 2.43. In the case of MAAPALSWRLPLLILLLPLATSWASAAVNGTSQFTS, the enrichment score is reported as 1.26. PLPHPGAAPWPMAFPYQYPPPPHPYNPHPGFPELGY gave an enrichment score of 3.05.

From the supplement of paper PMC11237882
